We go through four molecules from publication PMC10632352, “Nde1 promotes Lis1-mediated activation of dynein” (Nature Communications, 2023).

These are yes or no findings as the source states them, for the method shown.

For test [1], the target named is T1, mtLis1 (dynein-binding mutant of Lis1, R316A and W340A) (human) (UniProt P43034).
T1 sequence (chain, LD555, or Alexa488 and biotin, on the SNAP tag in the colocalization assays): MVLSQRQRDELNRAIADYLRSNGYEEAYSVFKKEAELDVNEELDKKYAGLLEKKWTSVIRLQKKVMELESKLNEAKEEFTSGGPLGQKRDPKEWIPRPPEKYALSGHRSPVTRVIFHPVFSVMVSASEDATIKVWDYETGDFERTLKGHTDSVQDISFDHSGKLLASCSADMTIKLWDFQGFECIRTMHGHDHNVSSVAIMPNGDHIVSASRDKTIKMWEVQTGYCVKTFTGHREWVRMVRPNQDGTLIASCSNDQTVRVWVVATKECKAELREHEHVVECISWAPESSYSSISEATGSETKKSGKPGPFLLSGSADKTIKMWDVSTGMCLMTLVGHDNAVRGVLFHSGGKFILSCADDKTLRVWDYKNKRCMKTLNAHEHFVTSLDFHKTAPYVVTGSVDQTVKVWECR
The test is described as follows: co-IP; purified proteins mixed in MB buffer with 5 mg/ml BSA and 150 mM NaCl, GFP-Trap beads, 1 h on ice; fluorescence of labelled proteins on a denaturing gel; which protein carried GFP is not told; both purified.

For test [2], the target named is T2, Lis1^83–410 (human) (UniProt P43034).
T2 sequence: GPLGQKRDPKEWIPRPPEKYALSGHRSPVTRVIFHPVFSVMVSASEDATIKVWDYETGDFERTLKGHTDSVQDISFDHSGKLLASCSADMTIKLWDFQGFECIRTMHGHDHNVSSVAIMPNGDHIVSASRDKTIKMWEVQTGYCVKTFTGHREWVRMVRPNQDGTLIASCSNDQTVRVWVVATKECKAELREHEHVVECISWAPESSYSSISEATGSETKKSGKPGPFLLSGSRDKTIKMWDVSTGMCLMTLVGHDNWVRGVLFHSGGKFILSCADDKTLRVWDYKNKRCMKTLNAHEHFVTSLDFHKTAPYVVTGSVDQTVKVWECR
Kind of test: mass photometry; proteins diluted to 5–20 nM in 30 mM HEPES pH 7.4, 5 mM MgSO4, 1 mM EGTA, 10% glycerol; Refeyn TwoMP; profiles fitted to multiple Gaussians; both purified.

The target of test [3] is T1, mtLis1 (dynein-binding mutant of Lis1, R316A and W340A) (human). Described as above.

B1: human Nde1 (natural protein, UniProt Q9NXR1 1-335, looked up)
chain: MEDSGKTFSSEEEEANYWKDLAMTYKQRAENTQEELREFQEGSREYEAELETQLQQIETRNRDLLSENNRLRMELETIKEKFEVQHSEGYRQISALEDDLAQTKAIKDQLQKYIRELEQANDDLERAKRATIMSLEDFEQRLNQAIERNAFLESELDEKENLLESVQRLKDEARDLRQELAVQQKQEKPRTPMPSSVEAERTDTAVQATGSVPSTPIAHRGPSSSLNTPGSFRRGLDDSTGGTPLTPAARISALNIVGDLLRKVGALESKLASCRNLVYDQSPNRTGGPASGRSSKNRDGGERRPSSTSVPLGDKGLDTSCRWLSKSTTRSSSSC
modifications: LD655 or LD555 dye where labelled
notes: Nde1, human; Labelled through a SNAP or a ybbR tag; also called full-length Nde1; WT Nde1; source: Sf9 (baculovirus, pOmniBac), purified (IgG Sepharose, TEV elution, Superdex 200 Increase SEC)
Turning to B1, the binding result in test [1] was “no binding”.

B2: Nde1^1–190 (N-terminus of human Nde1) (domain or fragment, UniProt Q9NXR1 1-190, looked up)
chain: MEDSGKTFSSEEEEANYWKDLAMTYKQRAENTQEELREFQEGSREYEAELETQLQQIETRNRDLLSENNRLRMELETIKEKFEVQHSEGYRQISALEDDLAQTKAIKDQLQKYIRELEQANDDLERAKRATIMSLEDFEQRLNQAIERNAFLESELDEKENLLESVQRLKDEARDLRQELAVQQKQEKPR
modifications: LD555 dye in the analytical SEC
notes: Nde1, human, N-terminal coiled-coil, residues 1-190 (C-terminus truncated); also called Nde1^1–190-LD555; source: Sf9 (baculovirus, pOmniBac), purified (IgG Sepharose, TEV elution, Superdex 200 Increase SEC)
With B2, the binding entry in test [2] and in test [3] was “no binding (tested: 5–20 nM)” throughout.

B3: Lis1^83–410 (domain or fragment, UniProt P43034 83-410)
chain: GPLGQKRDPKEWIPRPPEKYALSGHRSPVTRVIFHPVFSVMVSASEDATIKVWDYETGDFERTLKGHTDSVQDISFDHSGKLLASCSADMTIKLWDFQGFECIRTMHGHDHNVSSVAIMPNGDHIVSASRDKTIKMWEVQTGYCVKTFTGHREWVRMVRPNQDGTLIASCSNDQTVRVWVVATKECKAELREHEHVVECISWAPESSYSSISEATGSETKKSGKPGPFLLSGSRDKTIKMWDVSTGMCLMTLVGHDNWVRGVLFHSGGKFILSCADDKTLRVWDYKNKRCMKTLNAHEHFVTSLDFHKTAPYVVTGSVDQTVKVWECR
As for B3, the binding entry in test [2] is “no binding (tested: 5–20 nM)”.

B4: α2 subunit of platelet activator factor acetylhydrolase 1B (PAF-AH1B) (enzyme, UniProt P68402 1-229)
chain: MSQGDSNPAAIPHAAEDIQGDDRWMSQHNRFVLDCKDKEPDVLFVGDSMVQLMQQYEIWRELFSPLHALNFGIGGDTTRHVLWRLKNGELENIKPKVIVVWVGTNNHENTAEEVAGGIEAIVQLINTRQPQAKIIVLGLLPRGEKPNPLRQKNAKVNQLLKVSLPKLANVQLLDTDGGFVHSDGAISCHDMFDFLHLTGGGYAKICKPLHELIMQLLEETPEEKQTTIA
modifications: Alexa488 in the analytical SEC; a dye in the colocalization assay
Consider B4, for which, in test [3], the binding entry is “no binding (tested: 5–20 nM)”.
